# The supplement of paper PMC12819154, “High-throughput peptide-centric local stability assay extends protein–ligand identification to membrane proteins, tissues and bacteria” (Nature Structural & Molecular Biology, 2025)
# Protein sequences, listed by entry. Tags and fused reporters are not part of them. Lines headed by an entry give the natural chain unless they say otherwise; changes in a name come on top.
# UniProt P30291: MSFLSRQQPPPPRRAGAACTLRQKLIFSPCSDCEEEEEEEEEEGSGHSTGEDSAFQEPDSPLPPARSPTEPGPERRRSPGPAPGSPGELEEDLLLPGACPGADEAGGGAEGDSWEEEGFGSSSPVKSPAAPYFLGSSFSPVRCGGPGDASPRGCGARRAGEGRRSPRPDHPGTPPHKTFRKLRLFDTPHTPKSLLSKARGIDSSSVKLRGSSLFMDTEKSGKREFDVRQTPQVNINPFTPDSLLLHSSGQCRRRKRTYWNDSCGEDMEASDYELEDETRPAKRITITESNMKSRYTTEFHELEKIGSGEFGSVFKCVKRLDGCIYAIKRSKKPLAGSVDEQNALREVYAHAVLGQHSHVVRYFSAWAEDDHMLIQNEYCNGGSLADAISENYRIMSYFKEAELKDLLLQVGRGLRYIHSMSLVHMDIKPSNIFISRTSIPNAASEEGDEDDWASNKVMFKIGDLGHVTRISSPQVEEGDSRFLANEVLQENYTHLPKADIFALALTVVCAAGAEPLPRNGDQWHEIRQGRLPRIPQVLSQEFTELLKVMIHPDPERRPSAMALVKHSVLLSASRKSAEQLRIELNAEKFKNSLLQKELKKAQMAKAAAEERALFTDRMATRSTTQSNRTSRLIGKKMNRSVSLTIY
# UniProt P41223: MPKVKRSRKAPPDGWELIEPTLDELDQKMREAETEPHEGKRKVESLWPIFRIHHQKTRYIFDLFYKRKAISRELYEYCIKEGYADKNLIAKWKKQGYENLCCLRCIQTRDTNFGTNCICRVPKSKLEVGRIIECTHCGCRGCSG
# UniProt P35754: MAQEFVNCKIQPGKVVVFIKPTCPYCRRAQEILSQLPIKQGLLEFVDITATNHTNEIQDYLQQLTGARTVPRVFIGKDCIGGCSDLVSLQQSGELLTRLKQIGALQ
# UniProt P42166: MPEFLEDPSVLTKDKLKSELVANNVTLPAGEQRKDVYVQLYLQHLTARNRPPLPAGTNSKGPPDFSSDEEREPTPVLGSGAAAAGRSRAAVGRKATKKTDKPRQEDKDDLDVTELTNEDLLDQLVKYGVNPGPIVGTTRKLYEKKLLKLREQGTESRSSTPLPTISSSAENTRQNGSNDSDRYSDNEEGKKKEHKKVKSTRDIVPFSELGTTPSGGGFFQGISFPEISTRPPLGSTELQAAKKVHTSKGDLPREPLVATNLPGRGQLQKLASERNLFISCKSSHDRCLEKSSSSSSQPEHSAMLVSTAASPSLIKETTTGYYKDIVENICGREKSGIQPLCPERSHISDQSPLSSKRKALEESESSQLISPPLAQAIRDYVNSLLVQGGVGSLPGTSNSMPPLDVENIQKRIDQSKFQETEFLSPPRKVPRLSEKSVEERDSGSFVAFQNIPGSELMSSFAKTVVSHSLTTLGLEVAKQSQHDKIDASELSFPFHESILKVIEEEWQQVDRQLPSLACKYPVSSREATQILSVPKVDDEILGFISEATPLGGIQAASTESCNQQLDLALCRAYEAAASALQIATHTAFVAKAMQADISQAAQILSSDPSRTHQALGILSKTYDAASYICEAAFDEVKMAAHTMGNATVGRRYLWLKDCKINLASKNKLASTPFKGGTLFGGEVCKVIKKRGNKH
# UniProt P30520: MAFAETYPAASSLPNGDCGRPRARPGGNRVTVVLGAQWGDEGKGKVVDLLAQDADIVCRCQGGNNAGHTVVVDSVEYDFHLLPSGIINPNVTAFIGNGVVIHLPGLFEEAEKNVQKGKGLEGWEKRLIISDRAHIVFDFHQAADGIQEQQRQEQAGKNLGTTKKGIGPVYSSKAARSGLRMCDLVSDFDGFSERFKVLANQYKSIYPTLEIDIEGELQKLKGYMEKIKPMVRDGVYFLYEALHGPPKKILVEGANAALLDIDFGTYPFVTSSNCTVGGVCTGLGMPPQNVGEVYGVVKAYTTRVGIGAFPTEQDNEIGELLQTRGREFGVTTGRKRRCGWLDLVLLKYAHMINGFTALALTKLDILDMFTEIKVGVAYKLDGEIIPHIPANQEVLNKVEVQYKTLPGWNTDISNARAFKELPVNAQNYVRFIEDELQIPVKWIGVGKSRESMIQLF
# UniProt P45974: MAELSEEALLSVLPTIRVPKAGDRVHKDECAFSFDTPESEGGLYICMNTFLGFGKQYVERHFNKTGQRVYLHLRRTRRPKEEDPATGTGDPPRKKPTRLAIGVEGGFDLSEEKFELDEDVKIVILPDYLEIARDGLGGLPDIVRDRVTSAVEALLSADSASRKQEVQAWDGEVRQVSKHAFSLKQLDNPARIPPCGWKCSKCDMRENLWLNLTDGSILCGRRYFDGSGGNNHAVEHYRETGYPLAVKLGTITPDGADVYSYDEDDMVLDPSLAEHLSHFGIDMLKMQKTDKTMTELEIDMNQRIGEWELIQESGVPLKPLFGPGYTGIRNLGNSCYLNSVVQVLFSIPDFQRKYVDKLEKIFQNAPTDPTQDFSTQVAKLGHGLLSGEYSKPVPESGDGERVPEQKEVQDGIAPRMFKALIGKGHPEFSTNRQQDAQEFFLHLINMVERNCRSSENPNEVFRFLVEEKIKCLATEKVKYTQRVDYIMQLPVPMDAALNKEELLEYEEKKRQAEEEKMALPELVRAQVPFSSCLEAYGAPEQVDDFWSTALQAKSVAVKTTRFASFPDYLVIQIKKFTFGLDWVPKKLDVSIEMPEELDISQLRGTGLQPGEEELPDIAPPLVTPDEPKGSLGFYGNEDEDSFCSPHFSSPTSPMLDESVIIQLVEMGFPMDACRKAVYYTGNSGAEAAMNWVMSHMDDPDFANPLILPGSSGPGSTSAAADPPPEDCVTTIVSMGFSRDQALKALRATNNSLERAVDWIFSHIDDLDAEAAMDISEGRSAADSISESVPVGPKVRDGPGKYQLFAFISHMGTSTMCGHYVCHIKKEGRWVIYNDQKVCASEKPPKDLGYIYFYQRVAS
# UniProt P33176: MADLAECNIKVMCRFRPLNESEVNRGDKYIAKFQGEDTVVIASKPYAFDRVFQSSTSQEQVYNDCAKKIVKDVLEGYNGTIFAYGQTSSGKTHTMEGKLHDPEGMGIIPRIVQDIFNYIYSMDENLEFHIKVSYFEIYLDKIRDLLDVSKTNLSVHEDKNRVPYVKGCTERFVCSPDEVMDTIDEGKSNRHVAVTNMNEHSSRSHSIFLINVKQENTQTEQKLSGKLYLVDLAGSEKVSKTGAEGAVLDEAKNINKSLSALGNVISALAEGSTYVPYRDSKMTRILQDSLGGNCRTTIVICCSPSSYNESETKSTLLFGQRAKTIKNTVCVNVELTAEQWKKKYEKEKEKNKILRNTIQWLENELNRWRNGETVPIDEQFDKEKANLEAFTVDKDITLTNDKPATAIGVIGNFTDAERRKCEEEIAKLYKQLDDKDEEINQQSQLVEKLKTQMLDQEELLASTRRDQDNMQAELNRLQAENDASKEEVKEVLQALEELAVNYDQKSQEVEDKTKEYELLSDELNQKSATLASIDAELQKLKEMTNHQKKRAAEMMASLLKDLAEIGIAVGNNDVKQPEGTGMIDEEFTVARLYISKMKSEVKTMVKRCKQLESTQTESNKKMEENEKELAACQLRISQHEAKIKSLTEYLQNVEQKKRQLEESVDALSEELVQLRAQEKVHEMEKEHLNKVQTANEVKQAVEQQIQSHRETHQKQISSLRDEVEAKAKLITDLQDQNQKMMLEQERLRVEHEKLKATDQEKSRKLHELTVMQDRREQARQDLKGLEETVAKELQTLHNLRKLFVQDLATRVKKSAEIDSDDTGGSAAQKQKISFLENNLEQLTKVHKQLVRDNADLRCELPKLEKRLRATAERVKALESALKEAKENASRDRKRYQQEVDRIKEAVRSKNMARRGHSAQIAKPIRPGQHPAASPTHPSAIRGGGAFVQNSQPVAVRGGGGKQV
# UniProt P35237: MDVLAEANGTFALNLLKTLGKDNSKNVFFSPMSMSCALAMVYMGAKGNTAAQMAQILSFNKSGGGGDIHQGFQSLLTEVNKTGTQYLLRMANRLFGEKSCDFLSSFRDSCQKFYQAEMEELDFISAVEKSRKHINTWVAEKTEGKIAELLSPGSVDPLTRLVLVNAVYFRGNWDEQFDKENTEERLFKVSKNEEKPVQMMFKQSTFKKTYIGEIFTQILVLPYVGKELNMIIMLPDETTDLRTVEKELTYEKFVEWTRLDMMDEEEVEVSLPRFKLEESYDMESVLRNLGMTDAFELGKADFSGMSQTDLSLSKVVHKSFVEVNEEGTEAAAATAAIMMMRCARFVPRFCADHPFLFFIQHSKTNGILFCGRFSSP
# UniProt P43250, whole entry, looked up: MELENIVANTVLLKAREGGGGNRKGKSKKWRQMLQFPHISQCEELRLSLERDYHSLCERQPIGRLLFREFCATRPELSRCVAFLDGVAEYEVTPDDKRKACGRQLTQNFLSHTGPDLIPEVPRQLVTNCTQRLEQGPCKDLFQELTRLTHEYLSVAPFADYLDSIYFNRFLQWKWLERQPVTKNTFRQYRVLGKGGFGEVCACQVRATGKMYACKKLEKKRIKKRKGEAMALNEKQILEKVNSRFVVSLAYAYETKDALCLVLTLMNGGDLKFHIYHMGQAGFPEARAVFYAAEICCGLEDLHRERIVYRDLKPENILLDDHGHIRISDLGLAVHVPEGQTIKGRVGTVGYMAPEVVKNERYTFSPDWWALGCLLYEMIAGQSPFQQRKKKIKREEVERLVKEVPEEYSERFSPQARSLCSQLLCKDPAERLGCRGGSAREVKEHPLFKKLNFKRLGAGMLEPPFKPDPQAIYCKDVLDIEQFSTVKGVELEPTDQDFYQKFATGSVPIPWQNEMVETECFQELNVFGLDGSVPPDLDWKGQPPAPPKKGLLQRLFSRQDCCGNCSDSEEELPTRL
# UniProt P30613: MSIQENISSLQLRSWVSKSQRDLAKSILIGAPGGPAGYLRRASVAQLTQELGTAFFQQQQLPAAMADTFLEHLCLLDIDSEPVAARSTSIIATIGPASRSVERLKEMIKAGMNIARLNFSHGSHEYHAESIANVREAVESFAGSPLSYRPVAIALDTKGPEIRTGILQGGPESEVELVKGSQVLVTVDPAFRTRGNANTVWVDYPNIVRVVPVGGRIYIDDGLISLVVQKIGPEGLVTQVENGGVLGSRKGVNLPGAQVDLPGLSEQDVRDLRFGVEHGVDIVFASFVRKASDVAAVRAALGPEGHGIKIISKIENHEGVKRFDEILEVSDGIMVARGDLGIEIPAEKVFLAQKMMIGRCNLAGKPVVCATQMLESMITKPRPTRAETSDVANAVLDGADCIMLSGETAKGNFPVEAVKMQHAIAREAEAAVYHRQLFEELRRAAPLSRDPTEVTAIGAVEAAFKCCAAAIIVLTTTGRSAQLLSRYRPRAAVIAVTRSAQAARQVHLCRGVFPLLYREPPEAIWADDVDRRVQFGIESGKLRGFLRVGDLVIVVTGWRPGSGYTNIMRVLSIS
# UniProt P41227: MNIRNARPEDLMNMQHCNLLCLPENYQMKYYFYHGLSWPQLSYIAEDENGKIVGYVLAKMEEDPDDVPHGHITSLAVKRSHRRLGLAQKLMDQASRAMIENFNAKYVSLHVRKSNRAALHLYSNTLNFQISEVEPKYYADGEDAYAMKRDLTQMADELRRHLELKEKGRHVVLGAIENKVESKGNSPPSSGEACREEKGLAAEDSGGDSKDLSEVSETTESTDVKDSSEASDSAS
# UniProt P42765: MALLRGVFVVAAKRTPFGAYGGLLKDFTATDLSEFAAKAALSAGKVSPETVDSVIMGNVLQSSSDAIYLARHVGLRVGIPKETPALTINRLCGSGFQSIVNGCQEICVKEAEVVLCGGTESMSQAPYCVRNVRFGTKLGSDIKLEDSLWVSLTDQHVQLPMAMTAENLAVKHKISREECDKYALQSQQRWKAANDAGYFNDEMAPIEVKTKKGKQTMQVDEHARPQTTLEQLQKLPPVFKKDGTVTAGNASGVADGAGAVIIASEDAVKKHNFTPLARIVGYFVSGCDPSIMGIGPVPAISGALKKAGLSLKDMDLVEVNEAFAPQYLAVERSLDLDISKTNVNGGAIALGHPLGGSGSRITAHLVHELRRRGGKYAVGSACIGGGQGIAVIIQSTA
# UniProt P36551: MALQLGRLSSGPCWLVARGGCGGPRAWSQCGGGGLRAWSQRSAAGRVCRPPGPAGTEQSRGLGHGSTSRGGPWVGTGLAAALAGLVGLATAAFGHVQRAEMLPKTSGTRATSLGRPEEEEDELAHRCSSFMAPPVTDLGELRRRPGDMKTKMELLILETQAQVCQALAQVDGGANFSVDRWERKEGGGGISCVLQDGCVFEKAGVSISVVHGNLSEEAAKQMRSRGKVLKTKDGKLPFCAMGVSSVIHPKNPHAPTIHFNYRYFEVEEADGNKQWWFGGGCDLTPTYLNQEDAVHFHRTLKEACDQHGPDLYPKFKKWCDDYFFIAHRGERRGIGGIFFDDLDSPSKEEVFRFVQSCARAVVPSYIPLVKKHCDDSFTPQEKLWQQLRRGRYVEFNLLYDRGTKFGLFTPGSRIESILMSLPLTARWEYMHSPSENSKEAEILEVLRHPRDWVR
# Some of the results follow. Most values lie at the level of the controls, where differences are scatter.
# Compound: Cc1nc(Nc2ncc(C(=O)Nc3c(C)cccc3Cl)s2)cc(N2CCN(CCO)CC2)n1 [dasatinib]
# Experiment: log2 fold change of tryptic peptide abundance, ligand vs vehicle (limited proteolysis) (log2 ratio); higher = more trypsin-susceptible (destabilized)
# Details: ligand concentration: 5 uM; sample: K562 cleared lysate
row,Target,log2 fold change
1,"WEE1 (peptide sequence: YTTEFHELEK, peptide start residue: 295) (UniProt P30291)",-0.374
2,"UniProt P41223 (peptide sequence: IIECTHCGCRGCSG, peptide start residue: 131)",0.119
3,"PBX2 (peptide sequence: LLGPPPPGGGR, peptide start residue: 5) (UniProt P40425)",-0.109
4,"GLRX (peptide sequence: AQEILSQLPIK, peptide start residue: 29) (UniProt P35754)",-0.599
5,"LONP1 (peptide sequence: AGVTCIVLPAENKK, peptide start residue: 905) (UniProt P36776)",-0.205
6,"GTF2E1 (peptide sequence: MRVETAADGK, peptide start residue: 76) (UniProt P29083)",0.17
7,"AKT1 (peptide sequence: VTMNEFEYLK, peptide start residue: 145) (UniProt P31749)",0.285
8,"DNAJA1 (peptide sequence: VKETTYYDVLGVKPNATQEELK, peptide start residue: 2) (UniProt P31689)",0.356
9,"UniProt P32314 (peptide sequence: EDHNYSASSMAAQR, peptide start residue: 300)",-0.243
10,"TMPO (peptide sequence: THQALGILSK, peptide start residue: 611) (UniProt P42166)",-0.0743
11,"UniProt P30520 (peptide sequence: AHIVFDFHQAADGIQEQQR, peptide start residue: 133)",0.2
12,"STAT6 (peptide sequence: AVMEQFR, peptide start residue: 109) (UniProt P42226)",-0.218
13,"STX2 (peptide sequence: NHSIILSAPNPEGK, peptide start residue: 56) (UniProt P32856)",0.744
14,"MYH10 (peptide sequence: QLKDKADFCIIHYAGK, peptide start residue: 561) (UniProt P35580)",0.662
15,"USP5 (peptide sequence: VCASEKPPK, peptide start residue: 837) (UniProt P45974)",0.826
16,"RBMX (peptide sequence: DYGHSSSR, peptide start residue: 245) (UniProt P38159)",0.106
17,"GBP2 (peptide sequence: DIWDIQMR, peptide start residue: 573) (UniProt P32456)",0.0368
18,"KIF5B (peptide sequence: CKQLESTQTESNKK, peptide start residue: 608) (UniProt P33176)",0.835

row,Target,log2 fold change
1,"ARL4A (peptide sequence: IKVTLGNSK, peptide start residue: 59) (UniProt P40617)",-0.543
2,"CDC25B (peptide sequence: VILIFHCEFSSER, peptide start residue: 481) (UniProt P30305)",0.645
3,"UniProt P42677 (peptide sequence: KRLVQSPNSYFMDVK, peptide start residue: 22)",-0.681
4,"ETV5 (peptide sequence: VKQEPTMYR, peptide start residue: 349) (UniProt P41161)",-0.104
5,"HSPA9 (peptide sequence: YAEEDRR, peptide start residue: 568) (UniProt P38646)",0.226
6,"MAGEA6 (peptide sequence: ISYPLLHEWALR, peptide start residue: 299) (UniProt P43360)",-0.112
7,"LRPPRC (peptide sequence: FSPTDFLAK, peptide start residue: 179) (UniProt P42704)",0.0821
8,"SLC7A1 (peptide sequence: VLLNIGQQMLR, peptide start residue: 5) (UniProt P30825)",0.228
9,"SERPINB6 (peptide sequence: SCDFLSSFR, peptide start residue: 99) (UniProt P35237)",0.168
10,"GRK6 (peptide sequence: FHIYHMGQAGFPEAR, peptide start residue: 273) (UniProt P43250)",-0.244
11,"ZNF93 (peptide sequence: AFHLSTHLTTHK, peptide start residue: 545) (UniProt P35789)",1.29
12,"PKLR (peptide sequence: IISKIENHEGVK, peptide start residue: 310) (UniProt P30613)",0.378
13,"UniProt P41250 (peptide sequence: APQVDVDK, peptide start residue: 86)",0.199
14,"UniProt P35626 (peptide sequence: QIYDAYIMK, peptide start residue: 107)",0.356
15,"CETN2 (peptide sequence: MSPKPELTEEQKQEIR, peptide start residue: 19) (UniProt P41208)",-0.112
16,"UniProt P41227 (peptide sequence: GRHVVLGAIENKVESK, peptide start residue: 168)",-0.46
17,"ACAA2 (peptide sequence: ISREECDKYALQSQQR, peptide start residue: 174) (UniProt P42765)",-0.00204
18,"CPOX (peptide sequence: ATSLGRPEEEEDELAHR, peptide start residue: 110) (UniProt P36551)",-0.0789
